Results: article PMC11787673
Read-outs that look alike come from different tables or passages of the source. No constants are given. Whether binding was seen depends on the method and setting. In cells and extracts the contact can be indirect. Here binding means that the protein was enriched with, or labelled near, the bait; the list need not be complete. For part of these data: No binding means not detected with the bait. Values belong to the molecule of their own block, whether it stands above or below them.

Chains of the proteins cited; added tags and fusions are not shown. Lines headed by an entry give the natural chain unless they say otherwise; changes in a name come on top. Residues count along the entry.
UniProt Q64261: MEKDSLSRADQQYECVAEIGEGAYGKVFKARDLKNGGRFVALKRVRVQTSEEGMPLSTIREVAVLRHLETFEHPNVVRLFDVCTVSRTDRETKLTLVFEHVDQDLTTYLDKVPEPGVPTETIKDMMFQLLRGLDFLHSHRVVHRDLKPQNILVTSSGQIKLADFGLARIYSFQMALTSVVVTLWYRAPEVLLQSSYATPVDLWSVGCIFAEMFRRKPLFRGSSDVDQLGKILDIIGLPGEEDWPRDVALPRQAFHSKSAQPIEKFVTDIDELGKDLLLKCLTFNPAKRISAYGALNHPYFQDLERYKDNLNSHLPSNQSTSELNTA
HA-C-terminally truncated Cdk6 (Cdk6 ΔC): residues 1-294 of Q64261
UniProt P46414: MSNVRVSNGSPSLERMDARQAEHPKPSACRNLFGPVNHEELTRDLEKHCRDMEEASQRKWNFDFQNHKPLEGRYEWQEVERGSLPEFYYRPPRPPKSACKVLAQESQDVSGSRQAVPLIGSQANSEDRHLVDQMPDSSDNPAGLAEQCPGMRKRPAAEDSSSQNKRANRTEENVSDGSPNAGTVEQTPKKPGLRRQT
UniProt P24860: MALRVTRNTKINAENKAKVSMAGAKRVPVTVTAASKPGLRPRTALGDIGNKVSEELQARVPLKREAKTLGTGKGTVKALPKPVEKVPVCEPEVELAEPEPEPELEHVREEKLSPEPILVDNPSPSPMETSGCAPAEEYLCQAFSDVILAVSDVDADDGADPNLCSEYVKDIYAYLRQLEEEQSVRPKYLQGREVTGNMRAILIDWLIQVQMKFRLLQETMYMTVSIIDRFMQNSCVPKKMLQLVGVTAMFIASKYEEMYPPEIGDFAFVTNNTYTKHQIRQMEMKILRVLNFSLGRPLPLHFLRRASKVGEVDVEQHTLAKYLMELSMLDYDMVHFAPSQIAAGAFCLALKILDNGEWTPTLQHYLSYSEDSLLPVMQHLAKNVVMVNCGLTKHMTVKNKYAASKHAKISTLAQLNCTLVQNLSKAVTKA

Key:
Experiment in all cases: affinity purification with mass spectrometry; anti-HA magnetic beads with 1 mg RIPA lysate (150 mM NaCl, 50 mM Tris pH 8, 0.1% SDS, 0.5% NaDOC, 1% NP-40) overnight at 4°C, 5 washes with RIPA; label-free LC-MS/MS; Cdk6-/- cells as control
[1] = target: HA-C-terminally truncated Cdk6 (Cdk6 ΔC) (mouse) (UniProt Q64261)
[2] = target: full length HA-tagged Cdk6 (mouse) (UniProt Q64261)
[3] = target: HA-C-terminally truncated Cdk6 (Cdk6 ΔC) (mouse) (UniProt Q64261); remark: listed apart in the source
[4] = target: full length HA-tagged Cdk6 (mouse) (UniProt Q64261); remark: listed apart in the source

binding [1]: no binding
binding [2]: binds
Molecule: p27^Kip1 (from UniProt P46414 1-197)

binding [1]: binds
binding [2]: binds
Molecule: cyclin B1 (from UniProt P24860 1-430)

binding [3]: no binding
binding [4]: binds
B1: CDC37 (protein, UniProt Q61081 1-379)
chain: MVDYSVWDHIEVSDDEDETHPNIDTASLFRWRHQARVERMEQFQKEKEELDRGCRECKRKVAECQRKLKELEVAESDGQVELERLRAEAQQLRKEERSWEQKLEDMRKKEKNMPWNVDTLSKDGFSKSMVNTKPEKAEEDSEEAREQKHKTFVEKYEKQIKHFGMLHRWDDSQKYLSDNVHLVCEETANYLVIWCIDLEVEEKCALMEQVAHQTMVMQFILELAKSLKVDPRACFRQFFTKIKTADHQYMEGFKYELEAFKERVRGRAKLRIEKAMKEYEEEERKKRLGPGGLDPVEVYESLPEELQKCFDVKDVQMLQDAISKMDPTDAKYHMQRCIDSGLWVPNSKSGEAKEGEEAGPGDPLLEAVPKAGNEKDVSA
